Laboratory results published in PMC4738272 (Scientific Reports, 2016).

Experiments:
HepG2/C3A [1] = assay: MTT viability of liver module in 4-organ system; assay type: cell-based, human; settings: 4-organ co-culture under flow, serum-free medium, 48 h drug treatment, day 7, vs control, DOX 5 μM, ATR 100 μM, VPA 2 mM, APAP 5 mM, AMAP 5 mM
HepG2/C3A [2] = assay: Urea quantification, liver fraction of 4-organ system; assay type: cell-based, human; settings: 4-organ co-culture under flow, 48 h drug treatment, vs control; DOX 5 μM, ATR 100 μM, APAP 5 mM, AMAP 5 mM
[3] = cited from earlier work

CC(C)c1c(C(=O)Nc2ccccc2)c(-c2ccccc2)c(-c2ccc(F)cc2)n1CC[C@@H](O)C[C@@H](O)CC(=O)O [Atorvastatin]
Liver (hepatocyte) cell viability, loss (HepG2/C3A [1]): 50 ± 16% loss
Liver (hepatocyte) cell viability, loss (HepG2/C3A [1]; listed as ATR): 50 ± 16%
Urea production, increase (HepG2/C3A [2]): 24 ± 4%
Range for human plasma levels [3]: 13 to 125 µM
